In patent publication US20100273711A1, “INDIVIDUALIZED CANCER TREATMENTS” (priority 2007, published 2010):
For some assays here: At least one read-out could not be matched to a standard name with certainty. Some of these results come from one statement about several compounds together.

How the values were obtained:
[1] = system: NSCLC cell line (H2030); assay: Cell proliferation and drug sensitivity assay (MTT colorimetric assay, 96 hrs), H2030; format: cell-based; conditions: NSCLC cell line H2030, no prior treatment
Procedure: Lung and ovarian cancer cell culture. The NSCLC cell lines (H23, H225, H322, H358, H441, H520, A549, H647, H838, H1650, H1651, H1666, H1734, H1793, H1838, H2030 and H2 126) were grown as recommended by the supplier (ATCC, Rockville, Mo.). The ovarian cancer cell lines (OCV AR-3, OVCAR-5, TOV-21G and TOV-1120) were grown as recommended by the supplier (ATCC, Rockville, Mo.). FUOV-1, a human ovarian carcinoma, was grown according to the supplier (DSMZ, Braunschweig, Germany). Ten additional cell lines (C13, OV2008, A2780-CP, A2780S, IGROV-1, T8, IMCC3, 1MCC5, SKOV3 and A200S) were provided by Dr. Patricia Kruk (University of South Florida, Fla.). These ten cell lines were grown in RPMI 1640, supplemented with 10% Fetal Bovine Serum, 1% Sodium pyruvate, and 1% non essential amino acids. Tissue culture media and Thiazolyl Blue Tetrazolium Bromide were purchased from Sigma Aldrich (St. Louis, Mo.). Cisplatin and Pemetrexed were obtained from the pharmacy at Duke Medical Center.
Cell proliferation and Drug sensitivity assays. Optimal cell number and linear range of drug concentration were determined for each cell line and drug as described previously (Bild A, Yao G, Chang S T, et al: Oncogenic pathways signatures in human cancers as guide to targeted therapies. Nature 439(7074):353-357, 2006, Potti A, Dressman H K, Bild A, et al: Genomic signatures to guide the use of chemotherapeutics. Nature Medicine 12(11): 1294-1300, 2006). For drug sensitivity assay, cells were plated in non drug containing media in 96-well plates. After incubating for 24 hrs at 37° C., drugs were added to each well at a specific concentration. […]
Cell proliferation and Drug sensitivity assays. Optimal cell number and linear range of drug concentration were determined for each cell line and drug as described previously (Bild A, Yao G, Chang J T, et al: Oncogenic pathways signatures in human cancers as guide to targeted therapies. Nature 4:19(7074):353-357, 2006, Potti A, Oressman H K, Bild A, et al: Genomic signatures to guide the use of chemotherapeutics. Nature Medicine 12(11): 1294-1300, 2006). […]

[2] = system: advanced NSCLC; conditions: second line treatment of patients who fail platinum-based therapy; cited from earlier work

Compound	resistant or sensitive, based on cell proliferation assays (IC50) [1]	response rates [2]
CC(=O)O[C@@]12CO[C@@H]1C[C@H](O)[C@@]1(C)C(=O)[C@H](O)C3=C(C)[C@@H](OC(=O)[C@H](O)[C@@H](NC(=O)OC(C)(C)C)c4ccccc4)C[C@@](O)([C@@H](OC(=O)c4ccccc4)[C@H]21)C3(C)C [docetaxel]	resistant	7-10%
CC(=O)O[C@H]1C(=O)[C@@]2(C)[C@H]([C@H](OC(=O)c3ccccc3)[C@]3(O)C[C@H](OC(=O)[C@H](O)[C@@H](NC(=O)c4ccccc4)c4ccccc4)C(C)=C1C3(C)C)[C@]1(OC(C)=O)CO[C@@H]1C[C@@H]2O [paclitaxel]	resistant	
Nc1nc2[nH]cc(CCc3ccc(C(=O)N[C@@H](CCC(=O)O)C(=O)O)cc3)c2c(=O)[nH]1 [Pemetrexed, pemetrexed]	sensitive	7-10%
